# Source: the supplement of paper PMC8728848
# This is one part of the list.
# B1: Mnn9-2N3 (Aspergillus fumigatus) (protein)
# chain: MAVARRMRRTNPITLLLAAILAIGFFIFVLSPSTTSASPVKAGSASSSSTSQQRREDNAAENPLSPPTKPFFKSQPVRHDGQQAPPPVVQYNLNQLSSTSTSAANGERILILTPMARFVPEYWDNVVKLTYPHELISIGFIIPKNKEGNAALAALEAAIAKTQSGPIDKRFASISILRQDFEPPLQSQDEKERHKISNQKARRESMSRARNSLLFTTLGPATAWVLWLDADIVETPPTLIQDLTAHDHPVLVPNCYQRYYNSEKKKMDVRPYDYNSWIDSSTAQSMAAEMGPDEILLEGYAEMPTYRTLMAHLADTANPNPKKVIELDGVGGTALMVKAEVHRDGAMFPAFPFYHLVETEGFAKMAKRLGYSVYGLPDYFVSRNFFFFFFFFFFG
# Legend:
# Experiment in all cases: glycan array binding signal (z-score within array); higher = stronger binding
# Conditions in all cases: glycan notation: IUPAC condensed, linker removed
# [1] = molecular target: GlcNAc(b1-3)Gal(b1-4)Glc
# Procedure, shortened: (§1)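 Arrays were curated from the Consortium for Functional Glycomics database, 3228 in total, and kept only where the protein sequence was available. Binding is expressed as a within-array Z-score. This score was averaged across arrays of the same protein sequence at different concentrations or buffers and across linkers, and negative values can be read as non-binding.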
# [2] = molecular target: GlcNAc(b1-3)Gal(b1-4)GlcNAc
# Procedure, shortened: as §1
# [3] = molecular target: GlcNAc(b1-3)Gal(b1-4)GlcNAc(b1-2)Man(a1-3)[GlcNAc(b1-3)Gal(b1-4)GlcNAc(b1-2)Man(a1-6)]Man(b1-4)GlcNAc(b1-4)GlcNAc
# Procedure, shortened: as §1
# [4] = molecular target: GlcNAc(b1-3)Gal(b1-4)GlcNAc(b1-2)Man(a1-3)[GlcNAc(b1-3)Gal(b1-4)GlcNAc(b1-2)Man(a1-6)]Man(b1-4)GlcNAc(b1-4)[Fuc(a1-6)]GlcNAc
# Procedure, shortened: as §1
# [5] = molecular target: GlcNAc(b1-3)Gal(b1-4)GlcNAc(b1-2)[GlcNAc(b1-3)Gal(b1-4)GlcNAc(b1-6)]Man(a1-6)[GlcNAc(b1-3)Gal(b1-4)GlcNAc(b1-2)Man(a1-3)]Man(b1-4)GlcNAc(b1-4)GlcNAc
# Procedure, shortened: as §1
# [6] = molecular target: GlcNAc(b1-3)Gal(b1-4)GlcNAc(b1-3)Gal(b1-4)GlcNAc
# Procedure, shortened: as §1
# [7] = molecular target: GlcNAc(b1-3)Gal(b1-4)GlcNAc(b1-3)Gal(b1-4)GlcNAc(b1-2)Man(a1-3)[GlcNAc(b1-3)Gal(b1-4)GlcNAc(b1-3)Gal(b1-4)GlcNAc(b1-2)Man(a1-6)]Man(b1-4)GlcNAc(b1-4)GlcNAc
# Procedure, shortened: as §1
# [8] = molecular target: GlcNAc(b1-3)Gal(b1-4)GlcNAc(b1-3)Gal(b1-4)GlcNAc(b1-2)Man(a1-3)[GlcNAc(b1-3)Gal(b1-4)GlcNAc(b1-3)Gal(b1-4)GlcNAc(b1-2)Man(a1-6)]Man(b1-4)GlcNAc(b1-4)[Fuc(a1-6)]GlcNAc
# Procedure, shortened: as §1
# [9] = molecular target: GlcNAc(b1-3)Gal(b1-4)GlcNAc(b1-3)Gal(b1-4)GlcNAc(b1-2)[GlcNAc(b1-3)Gal(b1-4)GlcNAc(b1-3)Gal(b1-4)GlcNAc(b1-6)]Man(a1-6)[GlcNAc(b1-3)Gal(b1-4)GlcNAc(b1-3)Gal(b1-4)GlcNAc(b1-2)Man(a1-3)]Man(b1-4)GlcNAc(b1-4)[Fuc(a1-6)]GlcNAc
# Procedure, shortened: as §1
# [10] = molecular target: GlcNAc(b1-3)Gal(b1-4)GlcNAc(b1-3)Gal(b1-4)GlcNAc(b1-3)Gal(b1-4)GlcNAc(b1-2)Man(a1-3)[GlcNAc(b1-3)Gal(b1-4)GlcNAc(b1-3)Gal(b1-4)GlcNAc(b1-3)Gal(b1-4)GlcNAc(b1-2)Man(a1-6)]Man(b1-4)GlcNAc(b1-4)GlcNAc
# Procedure, shortened: as §1
# [11] = molecular target: GlcNAc(b1-3)Gal(b1-4)GlcNAc(b1-3)Gal(b1-4)GlcNAc(b1-3)Gal(b1-4)GlcNAc(b1-2)Man(a1-3)[GlcNAc(b1-3)Gal(b1-4)GlcNAc(b1-3)Gal(b1-4)GlcNAc(b1-3)Gal(b1-4)GlcNAc(b1-2)Man(a1-6)]Man(b1-4)GlcNAc(b1-4)[Fuc(a1-6)]GlcNAc
# Procedure, shortened: as §1
# [12] = molecular target: GlcNAc(b1-3)Gal(b1-4)GlcNAc(b1-3)Gal(b1-4)GlcNAc(b1-3)Gal(b1-4)GlcNAc(b1-2)[GlcNAc(b1-3)Gal(b1-4)GlcNAc(b1-3)Gal(b1-4)GlcNAc(b1-3)Gal(b1-4)GlcNAc(b1-6)]Man(a1-6)[GlcNAc(b1-3)Gal(b1-4)GlcNAc(b1-3)Gal(b1-4)GlcNAc(b1-3)Gal(b1-4)GlcNAc(b1-2)Man(a1-3)]Man(b1-4)GlcNAc(b1-4)[Fuc(a1-6)]GlcNAc
# Procedure, shortened: as §1
# [13] = molecular target: GlcNAc(b1-3)Gal(b1-4)GlcNAc(b1-3)Gal(b1-4)GlcNAc(b1-3)Gal(b1-4)GlcNAc(b1-3)Gal(b1-4)GlcNAc(b1-2)Man(a1-3)[GlcNAc(b1-3)Gal(b1-4)GlcNAc(b1-3)Gal(b1-4)GlcNAc(b1-3)Gal(b1-4)GlcNAc(b1-3)Gal(b1-4)GlcNAc(b1-2)Man(a1-6)]Man(b1-4)GlcNAc(b1-4)GlcNAc
# Procedure, shortened: as §1
# [14] = molecular target: GlcNAc(b1-3)Gal(b1-4)GlcNAc(b1-3)Gal(b1-4)GlcNAc(b1-3)Gal(b1-4)GlcNAc(b1-3)Gal(b1-4)GlcNAc(b1-2)Man(a1-3)[GlcNAc(b1-3)Gal(b1-4)GlcNAc(b1-3)Gal(b1-4)GlcNAc(b1-3)Gal(b1-4)GlcNAc(b1-3)Gal(b1-4)GlcNAc(b1-2)Man(a1-6)]Man(b1-4)GlcNAc(b1-4)[Fuc(a1-6)]GlcNAc
# Procedure, shortened: as §1
# [15] = molecular target: GlcNAc(b1-3)Gal(b1-4)GlcNAc(b1-3)Gal(b1-4)GlcNAc(b1-3)Gal(b1-4)GlcNAc(b1-3)Gal(b1-4)GlcNAc(b1-2)[GlcNAc(b1-3)Gal(b1-4)GlcNAc(b1-3)Gal(b1-4)GlcNAc(b1-3)Gal(b1-4)GlcNAc(b1-3)Gal(b1-4)GlcNAc(b1-6)]Man(a1-6)[GlcNAc(b1-3)Gal(b1-4)GlcNAc(b1-3)Gal(b1-4)GlcNAc(b1-3)Gal(b1-4)GlcNAc(b1-3)Gal(b1-4)GlcNAc(b1-2)Man(a1-3)]Man(b1-4)GlcNAc(b1-4)[Fuc(a1-6)]GlcNAc
# Procedure, shortened: as §1
# [16] = molecular target: GlcNAc(b1-3)Gal(b1-4)GlcNAc(b1-3)Gal(b1-4)GlcNAc(b1-3)GalNAc
# Procedure, shortened: as §1
# [17] = molecular target: GlcNAc(b1-3)Gal(b1-4)GlcNAc(b1-3)GalNAc
# Procedure, shortened: as §1
# [18] = molecular target: GlcNAc(b1-3)Gal(b1-4)GlcNAc(b1-3)[GlcNAc(b1-3)Gal(b1-4)GlcNAc(b1-3)]GalNAc
# Procedure, shortened: as §1
# [19] = molecular target: GlcNAc(b1-3)Gal(b1-4)GlcNAc(b1-6)[Gal(b1-3)]GalNAc
# Procedure, shortened: as §1
# [20] = molecular target: GlcNAc(b1-3)Gal(b1-4)GlcNAc(b1-6)[GlcNAc(b1-3)Gal(b1-3)]GalNAc
# Procedure, shortened: as §1
# [21] = molecular target: GlcNAc(b1-3)Gal(b1-4)GlcNAc(b1-6)[GlcNAc(b1-3)]Gal(b1-4)GlcNAc
# Procedure, shortened: as §1
# [22] = molecular target: GlcNAc(b1-3)GalNAc
# Procedure, shortened: as §1
# [23] = molecular target: GlcNAc(b1-3)Man
# Procedure, shortened: as §1
# [24] = molecular target: GlcNAc(b1-3)[GlcNAc(b1-4)][GlcNAc(b1-6)]GlcNAc
# Procedure, shortened: as §1
# [25] = molecular target: GlcNAc(b1-3)[GlcNAc(b1-6)]Gal(b1-4)GlcNAc
# Procedure, shortened: as §1
# [26] = molecular target: GlcNAc(b1-3)[GlcNAc(b1-6)]GalNAc
# Procedure, shortened: as §1
# [27] = molecular target: GlcNAc(b1-4)Gal(b1-4)GlcNAc
# Procedure, shortened: as §1
# [28] = molecular target: GlcNAc(b1-4)GlcNAc
# Procedure, shortened: as §1
# [29] = molecular target: GlcNAc(b1-4)GlcNAc(b1-4)GlcNAc
# Procedure, shortened: as §1
# [30] = molecular target: GlcNAc(b1-4)GlcNAc(b1-4)GlcNAc(b1-4)GlcNAc(b1-4)GlcNAc
# Procedure, shortened: as §1
# [31] = molecular target: GlcNAc(b1-4)GlcNAc(b1-4)GlcNAc(b1-4)GlcNAc(b1-4)GlcNAc(b1-4)GlcNAc
# Procedure, shortened: as §1
# [32] = molecular target: GlcNAc(b1-4)[GlcNAc(b1-6)]GalNAc
# Procedure, shortened: as §1
# [33] = molecular target: GlcNAc(b1-6)Gal(b1-4)GlcNAc
# Procedure, shortened: as §1
# [34] = molecular target: GlcNAc(b1-6)GalNAc
# Procedure, shortened: as §1
# [35] = molecular target: GlcNAc6S(b1-3)Gal(b1-4)GlcNAc
# Procedure, shortened: as §1
# [36] = molecular target: Kdn(a2-3)Gal(b1-3)GalNAc
# Procedure, shortened: as §1
# [37] = molecular target: Kdn(a2-3)Gal(b1-3)GlcNAc
# Procedure, shortened: as §1
# [38] = molecular target: Kdn(a2-3)Gal(b1-4)Glc
# Procedure, shortened: as §1
# [39] = molecular target: Kdn(a2-3)Gal(b1-4)GlcNAc
# Procedure, shortened: as §1
# [40] = molecular target: Kdn(a2-3)Gal(b1-4)[Fuc(a1-3)]GlcNAc
# Procedure, shortened: as §1
# [41] = molecular target: Kdn(a2-6)Gal(b1-4)GlcNAc
# Procedure, shortened: as §1
# [42] = molecular target: Man(a1-2)Man(a1-2)Man(a1-3)Man
# Procedure, shortened: as §1
# [43] = molecular target: Man(a1-2)Man(a1-2)Man(a1-6)[Man(a1-3)]Man
# Procedure, shortened: as §1
# [44] = molecular target: Man(a1-2)Man(a1-3)Man
# Procedure, shortened: as §1
# [45] = molecular target: Man(a1-2)Man(a1-3)[Man(a1-2)Man(a1-6)]Man
# Procedure, shortened: as §1
binder,measurement,setting,value
B1,glycan array binding signal (z-score),[1],-0.193
same,glycan array binding signal (z-score),[2],-1.56
same,glycan array binding signal (z-score),[3],1.94
same,glycan array binding signal (z-score),[4],0.507
same,glycan array binding signal (z-score),[5],0.891
same,glycan array binding signal (z-score),[6],-1.26
same,glycan array binding signal (z-score),[7],1.08
same,glycan array binding signal (z-score),[8],-0.271
same,glycan array binding signal (z-score),[9],1.76
same,glycan array binding signal (z-score),[10],0.771
same,glycan array binding signal (z-score),[11],0.885
same,glycan array binding signal (z-score),[12],2.26
same,glycan array binding signal (z-score),[13],0.578
same,glycan array binding signal (z-score),[14],-0.107
same,glycan array binding signal (z-score),[15],-0.243
same,glycan array binding signal (z-score),[16],-0.483
same,glycan array binding signal (z-score),[17],-0.145
same,glycan array binding signal (z-score),[18],-0.345
same,glycan array binding signal (z-score),[19],-0.927
same,glycan array binding signal (z-score),[20],-0.607
same,glycan array binding signal (z-score),[21],-0.329
same,glycan array binding signal (z-score),[22],0.953
same,glycan array binding signal (z-score),[23],-0.421
same,glycan array binding signal (z-score),[24],-0.123
same,glycan array binding signal (z-score),[25],-2.19
same,glycan array binding signal (z-score),[26],-0.128
same,glycan array binding signal (z-score),[27],-2.33
same,glycan array binding signal (z-score),[28],-0.273
same,glycan array binding signal (z-score),[29],-0.171
same,glycan array binding signal (z-score),[30],-0.66
same,glycan array binding signal (z-score),[31],-1.83
same,glycan array binding signal (z-score),[32],-0.241
same,glycan array binding signal (z-score),[33],-0.357
same,glycan array binding signal (z-score),[34],-0.228
same,glycan array binding signal (z-score),[35],-0.495
same,glycan array binding signal (z-score),[36],-2.43
same,glycan array binding signal (z-score),[37],0.302
same,glycan array binding signal (z-score),[38],-0.385
same,glycan array binding signal (z-score),[39],-0.027
same,glycan array binding signal (z-score),[40],-0.059
same,glycan array binding signal (z-score),[41],-0.168
same,glycan array binding signal (z-score),[42],1.22
same,glycan array binding signal (z-score),[43],-0.291
same,glycan array binding signal (z-score),[44],0.106
same,glycan array binding signal (z-score),[45],2.13

# Given as tab-separated lines: part of the list above.
binder	measurement	setting	value
B1	glycan array binding signal (z-score)	[3]	1.94
same	glycan array binding signal (z-score)	[4]	0.507
